Reference: publication doi:10.1101/2025.05.30.657000
Read-outs that look alike come from different tables or passages of the source. These are yes or no findings as the source states them, for the method shown. Binding seen in cells or lysates may run through a third protein. A yes stands for co-enrichment or nearness to the bait. Other partners may have been found.

Chains of the proteins cited; added tags and fusions are not shown. Lines headed by an entry give the natural chain unless they say otherwise; changes in a name come on top.
UniProt Q07817: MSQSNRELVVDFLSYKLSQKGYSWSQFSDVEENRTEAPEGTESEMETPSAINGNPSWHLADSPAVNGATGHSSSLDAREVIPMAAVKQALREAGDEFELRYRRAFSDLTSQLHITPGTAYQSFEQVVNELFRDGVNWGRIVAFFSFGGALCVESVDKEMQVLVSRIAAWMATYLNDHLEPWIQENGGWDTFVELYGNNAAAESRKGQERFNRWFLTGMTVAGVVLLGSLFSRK
UniProt P10415: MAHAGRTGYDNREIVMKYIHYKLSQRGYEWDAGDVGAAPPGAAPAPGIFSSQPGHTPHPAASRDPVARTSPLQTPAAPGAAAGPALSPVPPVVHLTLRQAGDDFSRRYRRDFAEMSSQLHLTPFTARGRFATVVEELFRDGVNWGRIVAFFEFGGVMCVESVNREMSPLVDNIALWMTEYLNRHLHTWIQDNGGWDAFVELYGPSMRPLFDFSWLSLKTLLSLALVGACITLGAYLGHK
UniProt Q07812: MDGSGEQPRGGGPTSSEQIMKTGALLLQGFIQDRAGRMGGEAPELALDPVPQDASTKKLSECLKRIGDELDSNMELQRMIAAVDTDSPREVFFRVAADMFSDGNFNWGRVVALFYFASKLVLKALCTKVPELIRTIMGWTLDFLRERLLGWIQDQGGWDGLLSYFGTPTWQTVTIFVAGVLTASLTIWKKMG
UniProt O00429: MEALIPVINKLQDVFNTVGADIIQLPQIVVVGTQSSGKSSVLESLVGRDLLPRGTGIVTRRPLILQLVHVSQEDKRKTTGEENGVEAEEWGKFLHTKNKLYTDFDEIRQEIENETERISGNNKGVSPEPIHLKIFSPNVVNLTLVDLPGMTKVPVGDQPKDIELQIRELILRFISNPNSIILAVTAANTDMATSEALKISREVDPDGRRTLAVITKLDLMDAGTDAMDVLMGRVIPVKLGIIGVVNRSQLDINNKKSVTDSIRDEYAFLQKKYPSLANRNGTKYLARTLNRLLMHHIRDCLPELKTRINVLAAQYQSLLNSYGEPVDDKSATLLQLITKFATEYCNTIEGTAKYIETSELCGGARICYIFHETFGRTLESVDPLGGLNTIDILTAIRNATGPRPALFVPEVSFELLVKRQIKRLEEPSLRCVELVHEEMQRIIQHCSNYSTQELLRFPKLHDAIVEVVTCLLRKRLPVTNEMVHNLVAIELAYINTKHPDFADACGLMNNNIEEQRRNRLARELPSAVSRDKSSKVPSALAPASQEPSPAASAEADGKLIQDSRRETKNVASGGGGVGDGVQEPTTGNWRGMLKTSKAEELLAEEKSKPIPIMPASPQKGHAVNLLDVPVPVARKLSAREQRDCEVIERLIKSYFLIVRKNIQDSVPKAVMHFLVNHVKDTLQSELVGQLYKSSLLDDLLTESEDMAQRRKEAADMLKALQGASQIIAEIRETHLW
UniProt Q14318: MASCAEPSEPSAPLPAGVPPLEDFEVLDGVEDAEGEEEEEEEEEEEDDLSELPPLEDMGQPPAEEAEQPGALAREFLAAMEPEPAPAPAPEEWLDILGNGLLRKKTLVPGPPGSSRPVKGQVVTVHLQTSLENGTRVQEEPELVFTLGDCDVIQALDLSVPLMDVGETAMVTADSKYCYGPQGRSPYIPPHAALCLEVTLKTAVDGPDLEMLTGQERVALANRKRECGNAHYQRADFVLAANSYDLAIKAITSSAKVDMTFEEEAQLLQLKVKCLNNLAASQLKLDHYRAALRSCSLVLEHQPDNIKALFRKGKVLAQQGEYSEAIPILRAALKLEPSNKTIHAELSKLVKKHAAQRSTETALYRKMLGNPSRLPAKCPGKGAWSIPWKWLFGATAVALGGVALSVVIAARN
UniProt O94901: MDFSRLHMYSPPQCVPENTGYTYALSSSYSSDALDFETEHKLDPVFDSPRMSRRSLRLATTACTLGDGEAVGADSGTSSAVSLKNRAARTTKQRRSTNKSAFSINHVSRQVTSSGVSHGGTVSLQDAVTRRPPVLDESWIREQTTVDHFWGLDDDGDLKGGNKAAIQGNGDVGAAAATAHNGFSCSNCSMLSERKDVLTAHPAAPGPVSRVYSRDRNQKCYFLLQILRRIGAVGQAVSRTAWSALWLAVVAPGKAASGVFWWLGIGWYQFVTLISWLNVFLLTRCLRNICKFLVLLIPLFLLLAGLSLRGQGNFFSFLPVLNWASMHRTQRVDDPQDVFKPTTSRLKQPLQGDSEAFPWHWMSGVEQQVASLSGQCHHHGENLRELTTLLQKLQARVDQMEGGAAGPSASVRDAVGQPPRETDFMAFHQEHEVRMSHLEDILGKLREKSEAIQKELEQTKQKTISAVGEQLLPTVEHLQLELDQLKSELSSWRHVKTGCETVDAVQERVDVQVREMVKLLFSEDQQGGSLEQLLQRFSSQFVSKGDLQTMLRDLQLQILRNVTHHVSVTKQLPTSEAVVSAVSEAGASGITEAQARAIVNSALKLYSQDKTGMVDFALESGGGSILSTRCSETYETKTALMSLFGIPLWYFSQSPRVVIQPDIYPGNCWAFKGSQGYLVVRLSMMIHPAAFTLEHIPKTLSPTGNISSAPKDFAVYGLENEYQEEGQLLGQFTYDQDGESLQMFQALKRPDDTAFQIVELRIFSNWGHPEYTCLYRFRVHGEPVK
UniProt Q9BXK5: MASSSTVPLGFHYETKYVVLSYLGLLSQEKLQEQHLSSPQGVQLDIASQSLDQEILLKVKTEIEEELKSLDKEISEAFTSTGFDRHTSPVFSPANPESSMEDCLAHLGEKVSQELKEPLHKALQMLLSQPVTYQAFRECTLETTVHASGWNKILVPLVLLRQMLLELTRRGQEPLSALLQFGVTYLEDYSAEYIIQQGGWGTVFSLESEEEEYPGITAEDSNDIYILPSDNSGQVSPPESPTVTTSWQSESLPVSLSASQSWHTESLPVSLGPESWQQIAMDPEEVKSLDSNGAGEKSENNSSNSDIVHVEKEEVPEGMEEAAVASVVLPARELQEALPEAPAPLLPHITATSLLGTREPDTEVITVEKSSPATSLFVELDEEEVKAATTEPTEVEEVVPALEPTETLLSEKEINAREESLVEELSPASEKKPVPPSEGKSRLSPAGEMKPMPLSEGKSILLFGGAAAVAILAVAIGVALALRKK
UniProt Q07065: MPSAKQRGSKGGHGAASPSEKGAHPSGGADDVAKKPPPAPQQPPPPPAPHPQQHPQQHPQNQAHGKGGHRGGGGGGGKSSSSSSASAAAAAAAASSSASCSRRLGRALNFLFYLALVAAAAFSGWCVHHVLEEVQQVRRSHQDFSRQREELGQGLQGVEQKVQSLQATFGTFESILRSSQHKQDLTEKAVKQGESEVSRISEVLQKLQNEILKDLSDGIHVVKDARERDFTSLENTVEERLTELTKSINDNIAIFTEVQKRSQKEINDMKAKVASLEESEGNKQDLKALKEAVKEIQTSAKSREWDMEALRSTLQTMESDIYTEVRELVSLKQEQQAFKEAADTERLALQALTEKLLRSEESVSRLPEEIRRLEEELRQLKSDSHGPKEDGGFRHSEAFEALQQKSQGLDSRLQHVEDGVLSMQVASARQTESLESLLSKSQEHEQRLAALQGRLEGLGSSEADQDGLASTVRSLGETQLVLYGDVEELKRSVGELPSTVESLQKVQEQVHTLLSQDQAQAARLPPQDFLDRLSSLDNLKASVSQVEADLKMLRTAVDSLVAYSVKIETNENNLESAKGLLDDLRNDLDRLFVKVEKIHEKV
UniProt Q7Z434: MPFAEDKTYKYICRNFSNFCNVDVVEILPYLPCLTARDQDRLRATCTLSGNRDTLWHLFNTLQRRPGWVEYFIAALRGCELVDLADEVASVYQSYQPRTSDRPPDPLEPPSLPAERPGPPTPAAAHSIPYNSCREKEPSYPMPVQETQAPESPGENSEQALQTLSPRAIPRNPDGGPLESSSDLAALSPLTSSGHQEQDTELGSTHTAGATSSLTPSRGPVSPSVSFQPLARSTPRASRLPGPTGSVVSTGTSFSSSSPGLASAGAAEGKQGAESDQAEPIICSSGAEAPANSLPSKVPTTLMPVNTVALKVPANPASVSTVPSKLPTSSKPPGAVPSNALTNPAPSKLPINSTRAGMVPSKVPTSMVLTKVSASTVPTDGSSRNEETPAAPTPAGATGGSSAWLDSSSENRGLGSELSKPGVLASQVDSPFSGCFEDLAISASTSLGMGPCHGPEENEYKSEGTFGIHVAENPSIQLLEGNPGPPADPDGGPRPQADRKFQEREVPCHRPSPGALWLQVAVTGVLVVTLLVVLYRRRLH
UniProt Q9Y2I7: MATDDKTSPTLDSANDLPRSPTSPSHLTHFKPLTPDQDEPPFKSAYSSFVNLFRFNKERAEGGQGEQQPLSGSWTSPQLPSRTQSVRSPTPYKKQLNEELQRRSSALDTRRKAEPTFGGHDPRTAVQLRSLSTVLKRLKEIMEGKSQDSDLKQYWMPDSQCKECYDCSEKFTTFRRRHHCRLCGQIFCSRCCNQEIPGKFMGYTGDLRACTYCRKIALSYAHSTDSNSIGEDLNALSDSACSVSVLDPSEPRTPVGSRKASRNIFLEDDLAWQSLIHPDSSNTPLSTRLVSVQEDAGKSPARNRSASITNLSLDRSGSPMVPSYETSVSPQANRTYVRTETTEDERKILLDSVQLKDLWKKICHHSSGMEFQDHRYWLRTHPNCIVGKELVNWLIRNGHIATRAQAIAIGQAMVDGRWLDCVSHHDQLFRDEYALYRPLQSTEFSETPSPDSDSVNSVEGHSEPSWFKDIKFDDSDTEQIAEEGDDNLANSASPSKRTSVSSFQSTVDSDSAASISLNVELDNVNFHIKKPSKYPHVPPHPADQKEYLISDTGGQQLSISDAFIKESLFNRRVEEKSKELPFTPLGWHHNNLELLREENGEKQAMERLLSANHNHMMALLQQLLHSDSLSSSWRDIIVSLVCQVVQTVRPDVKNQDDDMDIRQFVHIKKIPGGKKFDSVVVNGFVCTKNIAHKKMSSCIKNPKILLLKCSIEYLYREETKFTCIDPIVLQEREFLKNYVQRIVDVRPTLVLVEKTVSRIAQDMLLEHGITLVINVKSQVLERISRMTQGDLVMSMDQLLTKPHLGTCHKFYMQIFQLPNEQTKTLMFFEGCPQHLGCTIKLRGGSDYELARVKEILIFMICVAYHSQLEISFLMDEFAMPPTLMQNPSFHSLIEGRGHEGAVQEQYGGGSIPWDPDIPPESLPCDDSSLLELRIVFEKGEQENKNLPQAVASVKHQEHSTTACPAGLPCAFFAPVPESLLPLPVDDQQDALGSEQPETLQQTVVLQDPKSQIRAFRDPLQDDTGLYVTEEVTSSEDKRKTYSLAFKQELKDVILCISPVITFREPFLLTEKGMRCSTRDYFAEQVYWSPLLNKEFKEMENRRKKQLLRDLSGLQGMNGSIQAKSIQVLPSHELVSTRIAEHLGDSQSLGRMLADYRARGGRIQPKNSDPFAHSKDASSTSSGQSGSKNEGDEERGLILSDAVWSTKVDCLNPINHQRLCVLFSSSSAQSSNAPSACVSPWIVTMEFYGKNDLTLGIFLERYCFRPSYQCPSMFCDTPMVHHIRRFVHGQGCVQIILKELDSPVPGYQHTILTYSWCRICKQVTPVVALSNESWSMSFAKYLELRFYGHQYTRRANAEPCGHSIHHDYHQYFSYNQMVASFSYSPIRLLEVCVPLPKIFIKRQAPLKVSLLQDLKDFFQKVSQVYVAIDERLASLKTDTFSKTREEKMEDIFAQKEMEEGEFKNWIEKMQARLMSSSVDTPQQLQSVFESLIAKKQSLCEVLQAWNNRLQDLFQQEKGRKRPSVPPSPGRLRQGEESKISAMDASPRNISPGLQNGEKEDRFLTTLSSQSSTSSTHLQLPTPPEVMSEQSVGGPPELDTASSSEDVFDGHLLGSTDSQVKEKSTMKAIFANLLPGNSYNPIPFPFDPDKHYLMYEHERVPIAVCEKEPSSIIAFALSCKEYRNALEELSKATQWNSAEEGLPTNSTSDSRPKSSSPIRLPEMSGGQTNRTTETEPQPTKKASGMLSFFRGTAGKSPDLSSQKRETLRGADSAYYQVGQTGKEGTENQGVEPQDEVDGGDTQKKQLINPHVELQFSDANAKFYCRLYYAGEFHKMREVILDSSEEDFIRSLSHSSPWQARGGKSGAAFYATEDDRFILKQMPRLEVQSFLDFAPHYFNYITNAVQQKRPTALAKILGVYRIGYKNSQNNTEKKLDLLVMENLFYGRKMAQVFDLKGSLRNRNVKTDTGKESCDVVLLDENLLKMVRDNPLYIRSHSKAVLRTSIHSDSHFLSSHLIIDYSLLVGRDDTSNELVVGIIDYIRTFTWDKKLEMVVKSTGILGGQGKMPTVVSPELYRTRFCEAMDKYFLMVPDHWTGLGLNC

Assays:
Assay in all cases: proximity labelling
BirA*-Bcl-XL [1] = molecular target: BirA*-Bcl-XL (UniProt Q07817)
BirA*-Bcl-2 = BirA*-Bcl-2 (UniProt P10415)
BirA*-BaxS184V = BirA*-BaxS184V (UniProt Q07812)
BirA*-Bcl-XL [2] = molecular target: BirA*-Bcl-XL (UniProt Q07817); remark: listed apart in the source
BirA*-BaxWT = BirA*-BaxWT (UniProt Q07812)

binding (BirA*-Bcl-2)	binding (BirA*-BaxS184V)	binding (BirA*-Bcl-XL [2])	Substance	also measured
binds	binds	binds	Drp1 (from UniProt O00429 1-736)	binding (BirA*-Bcl-XL [1]): binds
		binds	FK506-binding protein 8 (from UniProt Q14318 1-412)	
binds			SUN1 (from UniProt O94901 1-785)	

Continued, substance first:

Substance	binding (BirA*-Bcl-2)	binding (BirA*-BaxS184V)	binding (BirA*-Bcl-XL [2])	also measured
BCL2L13 (from UniProt Q9BXK5 1-485)				binding (BirA*-Bcl-XL [1]): binds
CKAP4 (from UniProt Q07065 1-602)	binds			
MAVS (from UniProt Q7Z434 1-540)		binds		
PIKfyve (from UniProt Q9Y2I7 1-2098)		binds		binding (BirA*-BaxWT): binds
cAMP-dependent protein kinase type II regulatory subunit (from UniProt P13861 1-404)			binds	
